Measurements: PubChem BioAssay AID270 (DTP/NCI, 2004)
The list does not hold the whole screen: it gathers tests that were run many times, whatever their T/C, doses with no T/C, and many T/C values between a quarter and a half above the control. Other doses and runs of a compound stand elsewhere. T/C gives the treated animals as a percentage of the vehicle group. Schedules are NCI's codes, taken here to give the interval after Q, in days (D) or hours (H), and the number of doses after X. Some doses have a count of surviving animals in place of a T/C: the source holds a T/C of zero for them, seemingly a mark for toxic or unscored doses. Some doses without a T/C left all or most animals alive at the check, yet need not have been tolerated: survival well below the control is almost never listed, so the zero probably covers shortened survival too. Counts of survivors are from the toxicity check (mostly the fifth day) where no day follows; animals may have died later. Some doses were run more than once; the values are given in rising order. For survival time, this PubChem deposit counts one and a half times the control or more as active, and values a quarter to a half above the control carry no call in these data; other NCI protocols may use other cut-offs. Some T/C values are followed by the survivors on the day toxicity was checked, most often the fifth; where none is given, no animal had died by that day.

Test system: BDF1 mice, s.c. Lewis lung carcinoma, T/C %
Assay: NCI In Vivo Anticancer Drug Screen. Data for tumor model Lewis Lung Carcinoma (subcutaneous) in B6D2F1 (BDF1) mice
Summary of the method: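 Readout: survival or tumor size, expressed as treated (T) over vehicle control (C). Transplantable tumor implanted in mice; compound given to the treated group.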

[1] = T/C endpoint: median survival time, dose: 64.0 mg/kg/injection, schedule: Q01DX005 (ip), vehicle: DMSO, higher T/C = longer survival
[2] = T/C endpoint: median survival time, dose: 128.0 mg/kg/injection, schedule: Q01DX005 (ip), vehicle: DMSO, higher T/C = longer survival

CC(=O)OC(C)(C)/C=C/C(=O)[C@](C)(O)[C@H]1[C@H](O)C[C@@]2(C)[C@@H]3CC=C4[C@@H](C[C@H](O)C(=O)C4(C)C)[C@]3(CO)C(=O)C[C@]12C
survivor count (T/C endpoint: mean tumor weight, dose: 0.86 mg/kg/injection, schedule: Q01DX011 (ip), vehicle: saline, higher T/C = larger tumour): 3 of 6
survivor count (T/C endpoint: mean tumor weight, dose: 1.3 mg/kg/injection, schedule: Q01DX011 (ip), vehicle: saline, higher T/C = larger tumour): 2 of 6
survivor count (T/C endpoint: mean tumor weight, dose: 2.0 mg/kg/injection, schedule: Q01DX011 (ip), vehicle: saline, higher T/C = larger tumour): 0 of 6

COc1cc2c3c(c1)/C(=N\Nc1ccccc1)CCN3CCC2
T/C (T/C endpoint: median survival time, dose: 1.56 mg/kg/injection, schedule: Q01DX009 (ip), vehicle: DMSO, higher T/C = longer survival): 129 % of control [6 of 9 alive]
survivor count (T/C endpoint: median survival time, dose: 3.12 mg/kg/injection, schedule: Q01DX009 (ip), vehicle: DMSO, higher T/C = longer survival): 4 of 10
survivor count (T/C endpoint: median survival time, dose: 6.25 mg/kg/injection, schedule: Q01DX009 (ip), vehicle: DMSO, higher T/C = longer survival): 8 of 10
survivor count (T/C endpoint: median survival time, dose: 12.5 mg/kg/injection, schedule: Q01DX009 (ip), vehicle: DMSO, higher T/C = longer survival): 9 of 9
survivor count (T/C endpoint: median survival time, dose: 25.0 mg/kg/injection, schedule: Q01DX009 (ip), vehicle: DMSO, higher T/C = longer survival): 5 of 8
survivor count (T/C endpoint: median survival time, dose: 50.0 mg/kg/injection, schedule: Q01DX009 (ip), vehicle: DMSO, higher T/C = longer survival): 1 of 9

CC(C)(CC(=O)O)CC(=O)OCC(=O)[C@@]1(O)CC[C@H]2[C@@H]3CCC4=CC(=O)C=C[C@]4(C)[C@H]3[C@@H](O)C[C@@]21C
survivor count (T/C endpoint: mean tumor weight, dose: 960.0 mg/kg/injection, schedule: Q01DX011 (sc), vehicle: steroid suspending solution, higher T/C = larger tumour): 0 of 6

CC1=C(/C=C/C(C)=C/C=C/C(C)=C/C=O)C(C)(C)CCC1
T/C (T/C endpoint: median survival time, dose: 4.0 mg/kg/injection, schedule: Q01DX005 (ip), vehicle: saline with Tween-80, higher T/C = longer survival): 137 % of control
survivor count (T/C endpoint: median survival time, dose: 8.0 mg/kg/injection, schedule: Q01DX005 (ip), vehicle: saline + alcohol, higher T/C = longer survival): 10 of 10
T/C (T/C endpoint: median survival time, dose: 8.0 mg/kg/injection, schedule: Q01DX005 (ip), vehicle: saline with Tween-80, higher T/C = longer survival): 134 % of control
survivor count (T/C endpoint: median survival time, dose: 16.0 mg/kg/injection, schedule: Q01DX005 (ip), vehicle: DMSO, higher T/C = longer survival): 3 of 10
survivor count (T/C endpoint: median survival time, dose: 16.0 mg/kg/injection, schedule: Q01DX005 (ip), vehicle: saline + alcohol, higher T/C = longer survival): 10 of 10
T/C (T/C endpoint: median survival time, dose: 16.0 mg/kg/injection, schedule: Q01DX005 (ip), vehicle: saline with Tween-80, higher T/C = longer survival): 127 % of control
survivor count (T/C endpoint: median survival time, dose: 32.0 mg/kg/injection, schedule: Q01DX005 (ip), vehicle: DMSO, higher T/C = longer survival): 0 of 10
survivor count (T/C endpoint: median survival time, dose: 32.0 mg/kg/injection, schedule: Q01DX005 (ip), vehicle: saline + alcohol, higher T/C = longer survival): 10 of 10
T/C (T/C endpoint: median survival time, dose: 32.0 mg/kg/injection, schedule: Q01DX005 (ip), vehicle: saline with Tween-80, higher T/C = longer survival): 137 % of control
T/C [1]: 145 % of control
survivor count [1]: 0 of 10
survivor count (T/C endpoint: median survival time, dose: 64.0 mg/kg/injection, schedule: Q01DX005 (ip), vehicle: saline + alcohol, higher T/C = longer survival): 9 of 9
T/C (T/C endpoint: median survival time, dose: 64.0 mg/kg/injection, schedule: Q01DX005 (ip), vehicle: saline with Tween-80, higher T/C = longer survival): 125 % of control
T/C [2]: 146 % of control
survivor count [2]: 0 of 10
survivor count (T/C endpoint: median survival time, dose: 128.0 mg/kg/injection, schedule: Q01DX005 (ip), vehicle: saline + alcohol, higher T/C = longer survival): 8 of 10
survivor count (T/C endpoint: median survival time, dose: 128.0 mg/kg/injection, schedule: Q01DX005 (ip), vehicle: saline with Tween-80, higher T/C = longer survival): 3 of 10
survivor count (T/C endpoint: median survival time, dose: 256.0 mg/kg/injection, schedule: Q01DX005 (ip), vehicle: DMSO, higher T/C = longer survival): 0 of 10
survivor count (T/C endpoint: median survival time, dose: 256.0 mg/kg/injection, schedule: Q01DX005 (ip), vehicle: saline + alcohol, higher T/C = longer survival): 0 of 10
survivor count (T/C endpoint: median survival time, dose: 256.0 mg/kg/injection, schedule: Q01DX005 (ip), vehicle: saline with Tween-80, higher T/C = longer survival): 0 of 10

CSc1ncc(Br)c(Sc2nc(N)nc3nc[nH]c23)n1
T/C (T/C endpoint: mean tumor weight, dose: 2.5 mg/kg/injection, schedule: Q01DX011 (ip), vehicle: other, evaluated on day 12, higher T/C = larger tumour): 130 % of control
survivor count (T/C endpoint: mean tumor weight, dose: 40.0 mg/kg/injection, schedule: Q01DX011 (ip), vehicle: other, higher T/C = larger tumour): 1 of 6

C[C@@H](N)[C@@H](O)c1ccccc1
survivor count (T/C endpoint: mean tumor weight, dose: 25.0 mg/kg/injection, schedule: Q01DX011 (ip), vehicle: saline, higher T/C = larger tumour): 0 of 6
survivor count (T/C endpoint: mean tumor weight, dose: 50.0 mg/kg/injection, schedule: Q01DX011 (ip), vehicle: saline, higher T/C = larger tumour): 0 of 6
survivor count (T/C endpoint: mean tumor weight, dose: 100.0 mg/kg/injection, schedule: Q01DX011 (ip), vehicle: saline, higher T/C = larger tumour): 0 of 6
survivor count (T/C endpoint: mean tumor weight, dose: 200.0 mg/kg/injection, schedule: Q01DX011 (ip), vehicle: saline, higher T/C = larger tumour): 0 of 6

N=C(N)Sc1cc(O)ccc1O
T/C (T/C endpoint: median survival time, dose: 37.5 mg/kg/injection, schedule: Q01DX009 (ip), vehicle: saline, higher T/C = longer survival): 149 % of control
T/C (T/C endpoint: median survival time, dose: 300.0 mg/kg/injection, schedule: Q01DX009 (ip), vehicle: saline, higher T/C = longer survival): 136 % of control [7 of 10 alive]

O=C1C(=O)c2ccccc2C(O)=C1CC=C(Cl)Cl
survivor count (T/C endpoint: mean tumor weight, dose: 100.0 mg/kg/injection, schedule: Q01DX011 (ip), vehicle: carboxymethylcellulose (CMC), higher T/C = larger tumour): 2 of 6
survivor count (T/C endpoint: mean tumor weight, dose: 100.0 mg/kg/injection, schedule: Q01DX011 (oral), vehicle: carboxymethylcellulose (CMC), higher T/C = larger tumour): 3 of 6
survivor count (T/C endpoint: median survival time, dose: 50.0 mg/kg/injection, schedule: Q01DX009 (ip), vehicle: Klucel (hydroxypropylcellulose) (HPC), higher T/C = longer survival): 8 of 10
survivor count (T/C endpoint: median survival time, dose: 75.0 mg/kg/injection, schedule: Q01DX009 (ip), vehicle: water, higher T/C = longer survival): 3 of 6
survivor count (T/C endpoint: median survival time, dose: 100.0 mg/kg/injection, schedule: Q01DX009 (ip), vehicle: Klucel (hydroxypropylcellulose) (HPC), higher T/C = longer survival): 4 of 10 and 5 of 10
survivor count (T/C endpoint: median tumor weight (est.), dose: 50.0 mg/kg/injection, schedule: Q01DX009 (ip), vehicle: Klucel (hydroxypropylcellulose) (HPC), higher T/C = larger tumour): 4 of 10

Cc1ccc(Oc2ccc3cc[n+](C)cc3c2)cc1
survivor count (T/C endpoint: median survival time, dose: 25.0 mg/kg/injection, schedule: Q01DX009 (ip), vehicle: saline, higher T/C = longer survival): 0 of 10

Cc1cc(NCCCCCCNc2cc(C)nc3ccc(N)cc23)c2cc(N)ccc2n1
survivor count (T/C endpoint: median tumor weight (est.), dose: 150.0 mg/kg/injection, schedule: Q01DX009 (ip), vehicle: Klucel (hydroxypropylcellulose) (HPC), higher T/C = larger tumour): 6 of 10
survivor count (T/C endpoint: median tumor weight (est.), dose: 300.0 mg/kg/injection, schedule: Q01DX009 (ip), vehicle: Klucel (hydroxypropylcellulose) (HPC), higher T/C = larger tumour): 1 of 10

COC(C(=O)C(O)C(C)O)C1Cc2cc3cc(OC4CC(OC(C)=O)C(OC5CC(O)C(OC)C(C)O5)C(C)O4)cc(O)c3c(O)c2C(=O)C1OC1CC(OC2CC(OC3CC(C)(O)C(OC(=O)C(C)C)C(C)O3)C(O)C(C)O2)C(O)C(C)O1 (configuration not stated)
survivor count (T/C endpoint: median survival time, dose: 1.0 mg/kg/injection, schedule: Q01DX009 (ip), vehicle: saline with Tween-80, higher T/C = longer survival): 9 of 10
survivor count (T/C endpoint: median survival time, dose: 4.0 mg/kg/injection, schedule: Q01DX009 (ip), vehicle: saline with Tween-80, higher T/C = longer survival): 8 of 10

O=NN(CCCl)C(=O)NC1CCC(O)CC1 (configuration not stated)
survivor count (T/C endpoint: median survival time, dose: 20.0 mg/kg/injection, schedule: Q01DX001 (ip), vehicle: other, higher T/C = longer survival): 10 of 10
T/C (T/C endpoint: median survival time, dose: 40.0 mg/kg/injection, schedule: Q01DX001 (ip), vehicle: other, higher T/C = longer survival): 136 % of control
survivor count (T/C endpoint: median survival time, dose: 80.0 mg/kg/injection, schedule: Q01DX001 (ip), vehicle: other, higher T/C = longer survival): 10 of 10
survivor count (T/C endpoint: median survival time, dose: 160.0 mg/kg/injection, schedule: Q01DX001 (ip), vehicle: Klucel (hydroxypropylcellulose) (HPC), higher T/C = longer survival): 7 of 10
survivor count (T/C endpoint: median survival time, dose: 160.0 mg/kg/injection, schedule: Q01DX001 (ip), vehicle: other, higher T/C = longer survival): 10 of 10

Cc1ccc(N2CCN(CCCN3CCN(c4ccccc4Cl)CC3)CC2)cc1
survivor count (T/C endpoint: mean tumor weight, dose: 180.0 mg/kg/injection, schedule: Q01DX011 (ip), vehicle: carboxymethylcellulose (CMC), higher T/C = larger tumour): 0 of 6

O=NN(CCCl)C(=O)NC1CCS(=O)(=O)CC1
T/C (T/C endpoint: median survival time, dose: 3.0 mg/kg/injection, schedule: Q04DX004 (ip), vehicle: Klucel (hydroxypropylcellulose) (HPC), higher T/C = longer survival): 147 % of control
T/C (T/C endpoint: median survival time, dose: 8.5 mg/kg/injection, schedule: Q04DX004 (ip), vehicle: carboxymethylcellulose (CMC), higher T/C = longer survival): 139 % of control
T/C (T/C endpoint: median survival time, dose: 8.5 mg/kg/injection, schedule: Q07DX002 (ip), vehicle: carboxymethylcellulose (CMC), higher T/C = longer survival): 136 % of control
survivor count (T/C endpoint: median survival time, dose: 10.0 mg/kg/injection, schedule: Q04DX004 (ip), vehicle: carboxymethylcellulose (CMC), higher T/C = longer survival): 10 of 10 on day 12
T/C (T/C endpoint: median survival time, dose: 11.0 mg/kg/injection, schedule: Q07DX002 (ip), vehicle: carboxymethylcellulose (CMC), higher T/C = longer survival): 142 % of control
T/C (T/C endpoint: median survival time, dose: 14.0 mg/kg/injection, schedule: Q07DX002 (ip), vehicle: carboxymethylcellulose (CMC), higher T/C = longer survival): 144 % of control

CCCNC(=NC)c1ccc(NC(=O)c2ccc(C(=O)Nc3ccc(C(=NC)NCCC)cc3)cc2)cc1
survivor count (T/C endpoint: mean tumor weight, dose: 20.0 mg/kg/injection, schedule: Q01DX011 (ip), vehicle: other, higher T/C = larger tumour): 0 of 6
